This is an account of results in US6348348.

Construct, isoform or probe ends are uncertain for at least one entry.

The test system of data set [1] is TR/RXR heterodimer (thyroid hormone receptor / retinoid X receptor). Put plainly: EMSA. The following applies: protein translated in vitro.
For data set [2], the system named is endogenous thyroid hormone receptor (GH1 cells) (rat). Put plainly: activity in cells. Conditions: 106HE-tkluc in GH1 cells activated by 10^-7 M L-T3; protein in cells.
Data set [3] relates to TR/RXR heterodimer (thyroid hormone receptor / retinoid X receptor). As to the kind of experiment: competition with a labelled probe. The following applies: oligos C and E containing this sequence compete for binding to 106 bp fragment; protein translated in vitro; variant of rat hr 106 bp HinfI-EagI fragment.

For “AGTCAGGCCAAGCTGCCACTAATCCGGGCGGGGAGAGGGGGGGCACCCACGTCAGAGCGGGGACTGCCGGGTGGAGGGCATCTGAGGACATCCCCTCCCACTCACGCGGCC (double strand) [rat hr 106 bp HinfI-EagI fragment]”, in data set [1] (described as high affinity, requires both TR and RXR, 5% gel 0.5xTBE, label: 32P), the binding result is given as “binds”. In addition, the “activity on this sequence” value in data set [2] was “active”. Take “GGTGGAGGGCATCTGAGGACATC (double strand) [23 bp sequence shared by oligos C and E (hr TRE, DR+4)]”: in data set [3], the binding result is “binds”. With “TGGAGGGCATCTGAGGACATC (double strand) [minimal hr TRE]”, in data set [1] (minimal sequence assayed that binds TR/RXR and confers thyroid hormone responsiveness, variant of rat hr 106 bp HinfI-EagI …), the binding result was “binds”.
